Measurements from patent US20240327415A1, “Multicomponent Complexes, Including Salts, Crystalline Forms, and Hydrates and Solvates of ENT1 Inhibitors” (iTeos Belgium SA, priority 2023, published 2024).
Where “and” joins values, the source holds several entries; their conditions need not be identical. Identical values can stand only once. For at least one compound, name, drawing or mass did not settle the structure.

Key:
Format in all cases: physicochemical
Set-up in all cases: key: Crystalline Form 1 di(hydrogen sulfate); Crystalline Form 2 di(hydrogen sulfate) trihydrate; Crystalline Form 3 di(hydrogen sulfate); M4: Crystalline Form 4 mono(hydrogen sulfate); Crystalline Form 6 di(hydrogen sulfate); Crystalline Form 7 di(hydrogen sulfate); Amorphous di(hydrogen sulfate); 2 + Am: Crystalline Form 2 di(hydrogen sulfate) trihydrate and amorphous di(hydrogen sulfate); NCO: Not carried out; PC: Poorly crystalline; ins: Insufficient solid; ns: No solid; +: Extra peaks; PO: Preferred orientation; 2 + 6: Crystalline Form 2 di(hydrogen sulfate) trihydrate and Crystalline Form 6 di(hydrogen sulfate)
[1] = pH solubility studies in buffers and biorelevant media (Example 16); conditions: 24 h
Protocol: Example 16—pH Solubility Studies—(1) Crystalline Form 2 Compound 1 di(hydrogen sulfate) trihydrate, (2) Crystalline Form 3 Compound 1 di(hydrogen sulfate), and (3) Crystalline Form 4 Compound 1 mono(hydrogen sulfate): pH solubility studies were carried out on the prepared crystalline Form 2 Compound 1 di(hydrogen sulfate) trihydrate, crystalline Form 3 Compound 1 di(hydrogen sulfate) and crystalline Form 4 Compound 1 mono(hydrogen sulfate) in the following media: (1) HCl/KCl, pH 1.2; (2) Acetate, pH 4.5; (3) Phosphate, pH 6.8; (4) FaSSIF; (5) FeSSIF; and (6) FaSSGF. Slurries of the hydrogen sulfate forms were prepared in the appropriate medium and stirred at 25° C. For the experiments in the buffer media, the pH of the slurry samples was measured and adjusted as required after 1 hour and 23 hours of the slurrying. Additional solid was added where dissolution was observed post-adjustment. The pH of the samples in the biorelevant media was measured at the 23 hour timepoint. No pH adjustment was made for the biorelevant media. After a total of 24 hours of slurrying, the mother liquors were extracted via centrifugation, and the concentrations and solution purity were determined by HPLC. The residual solids were isolated and analyzed by XRPD and are shown in FIG. 77, FIG. 78, and FIG. 79. The assessment was repeated for some of the samples, where required.

[2] = Variable Temperature X-Ray Powder Diffraction (VT-XRPD)
Protocol: (§1) In the examples below, VT-XRPD analysis was carried out on a Philips X'Pert Pro Multipurpose diffractometer equipped with a temperature chamber. The samples were scanned between 4 and 36° 2θ using Cu K radiation (α1 λ=1.54060 Å; α2=1.54443 Å; β=1.39225 Å; α1: α2 ratio=0.5; most, if not all, B radiation is removed from the beam using an X-ray mirror) running in Bragg-Brentano geometry (step size 0.008° 2θ) using 40 kV/40 mA generator settings. Measurements were carried out from ambient temperature to an upper limit of 250° C., with a final measurement taken after cooling.
as §1, with “VT-XRPD” for “In the examples below, VT-XRPD”, “Å; β2=1.39225” for “Å; β=1.39225”, “Å; α1:α2” for “Å; α1: α2”, “all, β” for “all, B”

[3] = Variable Humidity X-Ray Powder Diffraction (VH-XRPD)
Protocol: as §1, with “VH-XRPD” for “VT-XRPD”, “humidity” for “temperature”, “(α1λ=1.54060” for “(α1 λ=1.54060”, “2-90% RH,” for “ambient temperature to an upper limit of 250° C.,”, “at 40% RH.” for “after cooling.”
as §1, with “VH-XRPD analysis” for “In the examples below, VT-XRPD analysis”, “a humidity” for “a temperature”, “Å; α1:α2” for “Å; α1: α2”, “all, β” for “all, B”, “from 6-90% relative humidity (RH),” for “from ambient temperature to an upper limit of 250° C.,”, “taken at 40% RH.” for “taken after cooling.”

What does the source list for `COc1cc(C(=O)O[C@@H]2CCCOc3cc(cc(OC)c3OC)C(=O)NCCCN3CCCN(CC2)CC3)cc(OC)c1OC.O=S(=O)(O)O`?
XRPD of residual solids ([1]; FaSSGF, 25° C.): M4; XRPD of residual solids ([1]; FaSSIF, 25° C.): M4; XRPD of residual solids ([1]; FeSSIF, 25° C.): M4; XRPD of residual solids ([1]; pH 1.2 (HCl/KCl), 25° C.): M4; XRPD of residual solids ([1]; pH 4.5 (Acetate), 25° C.): M4; VT-XRPD Results ([2]; Heating, 25° C., hold 0 min): M4

With `COc1cc(C(=O)O[C@@H]2CCCOc3cc(cc(OC)c3OC)C(=O)NCCCN3CCCN(CC2)CC3)cc(OC)c1OC.O=S(=O)(O)O.O=S(=O)(O)O` [crystalline Form 3 Compound 1 di(hydrogen sulfate)] as the compound, how does the “XRPD of residual solids” value ([1]; FaSSGF, 25° C.) read?
Its value is 2.

What about the “XRPD of residual solids” value ([1]; FaSSIF, 25° C.) of the same compound?
Its value is 2.

What about the “XRPD of residual solids” value ([1]; pH 1.2 (HCl/KCl), attempt 1, 25° C.) of the same compound?
The value was 2.

And the “XRPD of residual solids” value ([1]; pH 4.5 (Acetate), attempt 1, 25° C.)?
Its value is “M4”.

And the “XRPD of residual solids” value ([1]; pH 4.5 (Acetate), attempt 2, 25° C.)?
Its value is “M4”.

What about the “VH-XRPD Results” value ([3]; Absorption, 20% RH, hold 60 min) of the same compound?
Its value is 3.

And the “VH-XRPD Results” value ([3]; Absorption, 40% RH, hold 60 min)?
The value was 3.

And the “VH-XRPD Results” value ([3]; Absorption, 50% RH, hold 60 min)?
The value was 3.

And the “VH-XRPD Results” value ([3]; Absorption, 60% RH, hold 60 min)?
The value was 3.

And the “VH-XRPD Results” value ([3]; Absorption, 70% RH, hold 60 min)?
The value was 3 and 6.

What about the “VH-XRPD Results” value ([3]; Absorption, 80% RH, hold 60 min) of the same compound?
Its value is 3 and 6.

And the “VH-XRPD Results” value ([3]; Absorption, 90% RH, hold 60 min)?
Its value is 3 and 2.

And the “VH-XRPD Results” value ([3]; Desorption, 2% RH, hold 60 min)?
Its value is 3.

What about the “VH-XRPD Results” value ([3]; Desorption, 10% RH, hold 1080 min) of the same compound?
The value was 3.

And the “VH-XRPD Results” value ([3]; Desorption, 20% RH, hold 60 min)?
The value was 3.

What about the “VH-XRPD Results” value ([3]; Desorption, 30% RH, hold 60 min) of the same compound?
The value was 3.

What about the “VH-XRPD Results” value ([3]; Desorption, 40% RH, hold 60 min (scan after 40 min)) of the same compound?
The value was 3.

And the “VH-XRPD Results” value ([3]; final Desorption, 40% RH, hold 60 min)?
The value was 2.

What about the “VH-XRPD Results” value ([3]; final Desorption, 60% RH, hold 60 min) of the same compound?
The value was 2.

And the “VH-XRPD Results” value ([3]; final Desorption, 80% RH, hold 1080 min)?
Its value is 2.

And the “VT-XRPD Results” value ([2]; Cooling, 30° C., hold 10 min)?
The value was 3.

And the “VT-XRPD Results” value ([2]; Heating, 25° C., hold 0 min)?
Its value is 3.

And the “VT-XRPD Results” value ([2]; Heating, 40° C., hold 30 min)?
Its value is 3.

What about the “VT-XRPD Results” value ([2]; Heating, 70° C., hold 30 min) of the same compound?
Its value is 3.

What about the “VT-XRPD Results” value ([2]; Heating, 90° C., hold 30 min) of the same compound?
Its value is 3.

What about the “VT-XRPD Results” value ([2]; Heating, 105° C., hold 30 min) of the same compound?
Its value is 3.

What about the “VT-XRPD Results” value ([2]; second Heating, 120° C., hold 30 min) of the same compound?
The value was 3.

And the “VT-XRPD Results” value ([2]; second Heating, 130° C., hold 30 min)?
The value was 3.
